Record: PubChem BioAssay AID1224826 (NIAID, 2016)

- Assay: 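Genes that change LPS-induced Tnf promoter activity in mouse macrophages when knocked down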 (primary screen)
- System: RAW264.7 G9 macrophages from mouse bearing reporters for p65 (GFP) and the Tnf promoter (mCherry)
- Reagent: siRNA pool against mouse genes, 100 nM
- Timing: 16 h of LPS stimulation, after 2 days of siRNA transfection
- Treatment: bacterial lipopolysaccharide (Salmonella minnesota R595), 10 ng/ml
- Read-out: 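Nuclear mCherry signal of the Tnf promoter reporter measured by imaging after background removal, scaled to each plate median and turned into robust z-scores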
- Direction: Tnf reporter robust z-score: higher = stronger Tnf promoter reporter signal after LPS; Tnf reporter intensity: higher = stronger Tnf promoter reporter signal
- Active means: 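Called active when robust z-score is at most -1.3, matching the median of the Tlr4 knock-down control, or over 3; control wells and wells with under 50 cells never active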
- Meaning of the calls: active = Tnf reporter clearly lowered or raised; inactive = no clear change in Tnf reporter
The whole screen tested about 17,000 reagents; this is a part drawn at random. Over the whole deposit, about 1,110 (6.6%) got an active call. 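Active means lowered or raised reporter signal; replicate intensities are raw and not normalised per plate.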 Unmarked entries are inactive.

| gene symbol | PubChem SID | Tnf reporter robust z-score | fewer than 50 cells in well | Tnf reporter intensity, replicate 1 | Tnf reporter intensity, replicate 2 |
| --- | --- | --- | --- | --- | --- |
| Abca8b | SID315470613 | -0.31 | enough cells in well | 167 | 185 |
| Caap1 | SID315473217 | -0.61 | enough cells in well | 135 | 122 |
| Six6 | SID315469262 | 0.39 | enough cells in well | 299 | 257 |
| Gucy1a2 | SID315479210 | -0.06 | enough cells in well | 261 | 222 |
| Kcnq1 | SID315467599 | -0.02 | enough cells in well | 225 | 159 |
| Mospd3 | SID315473671 | 2.06 | enough cells in well | 306 | 223 |
| Nfkbiz | SID315475730 | -0.68 | enough cells in well | 101 | 152 |
| Zfp282 | SID315476259 | 2.62 | enough cells in well | 0 | 245 |
| St6galnac6 | SID315470895 | 1.9 | enough cells in well | 158 | 174 |
| Hsd3b2 | SID315467315 | – | fewer than 50 cells per well; well left out of calls | 193 | 169 |
| Pea15a | SID315468459 | 0.49 | enough cells in well | 261 | 227 |
| Or5d46 | SID315480415 | 0.39 | enough cells in well | 205 | 176 |
| Igfals | SID315467407 | 0.27 | enough cells in well | 269 | 197 |
| Prr5l | SID315474550 | -0.48 | enough cells in well | 210 | 60.4 |
| Svs3a | SID315472088 | 2.43 | enough cells in well | 186 | 178 |
| Cd59b | SID315481660 | -1.2 | enough cells in well | 164 | 107 |
| Acvr2b | SID315465280 | – | fewer than 50 cells per well; well left out of calls | 165 | 111 |
| Ephb4 | SID315466530 | 0.48 | enough cells in well | 224 | 187 |
| Dnajb3 | SID315467322 | 2.75 | enough cells in well | 352 | 227 |
| Jmjd8 | SID315474456 | 0.18 | enough cells in well | 252 | 78.5 |
| Aup1 | SID315465580 | 0.47 | enough cells in well | 195 | 193 |
| Rars2 | SID315476784 | -0.29 | enough cells in well | 134 | 100 |
| Hrob | SID315478093 | -0.17 | enough cells in well | 202 | 187 |
| 3110009E18Rik | SID315474674 | – | fewer than 50 cells per well; well left out of calls | 211 | 120 |

Part of the list above, set out differently:
Abca8b [SID315470613]: Tnf reporter robust z-score = -0.31; fewer than 50 cells in well = enough cells in well; Tnf reporter intensity, replicate 1 = 167; Tnf reporter intensity, replicate 2 = 185
Caap1 [SID315473217]: Tnf reporter robust z-score = -0.61; fewer than 50 cells in well = enough cells in well; Tnf reporter intensity, replicate 1 = 135; Tnf reporter intensity, replicate 2 = 122
Six6 [SID315469262]: Tnf reporter robust z-score = 0.39; fewer than 50 cells in well = enough cells in well; Tnf reporter intensity, replicate 1 = 299; Tnf reporter intensity, replicate 2 = 257
Gucy1a2 [SID315479210]: Tnf reporter robust z-score = -0.06; fewer than 50 cells in well = enough cells in well; Tnf reporter intensity, replicate 1 = 261; Tnf reporter intensity, replicate 2 = 222
